Results: patent publication US10766889B2, “Aryl-2,2′-tandem bisthiazole compound and preparation method and use thereof” (SHANGHAI INSTITUTE OF MATERIA MEDICA, CHINESE ACADEMY OF …, priority 2016, dated 2020)

Columns and labels:
Format in all cases: cell-based
[1] = tested on: human multiple myeloma cell line RPMI 8226; experiment: Cell level anti-tumor activity test, CCK-8, multiple myeloma cells; details: 72 h, read-out: IC50 (growth inhibition, RPMI 8226)
Protocol: The antitumor activity test of the example compounds was carried out, and the in vitro antitumor activities of the compounds were evaluated by measuring the growth inhibitory activities of the compounds against human multiple myeloma cell line 8266.
The RPMI 8226 cell line was obtained from Professor Hou Jian of Shanghai Changzheng Hospital, cultivated under culture conditions: RPMI-1640+10% FBS, routinely cultured in a saturated humidity incubator (Forma Scientific, Inc.) containing 5% CO2 at 37° C. […]
CCK-8 staining method: after the drug was applied, 10 μL of CCK-8 solution was added to each well, and incubated at 37° C. for 3 h. The OD value at 450 nm and 690 nm was measured by microplate reader.
The inhibition rate (% Inhibiton) and activity (% Activity) of the test substance on the proliferation of multiple myeloma cells were calculated according to the following formula, wherein ODsample refers to the absorbance value of the administration hole (OD450-OD690). OD DMSO refers to the absorbance of the DMSO control well (OD450-OD690).
The logarithm of the concentration was plotted against the activity percentage (% Activity), and the fitted curve was calculated by nonlinear regression. The value of IC50 was calculated by using the GraphPad Prism5 software log(inhibitor) vs response—Variable slope parameter setting. […]

[2] = tested on: Liver cancer BEL-7402; experiment: Tumor cell proliferation inhibition, SRB; details: Homo sapiens, Bel-7402, 72 h, read-out: IC50 (mean ± SD) Liver cancer BEL-7402
[3] = tested on: Lung Cancer NCI-H1975; experiment: Tumor cell proliferation inhibition, SRB; details: Homo sapiens, NCI-H1975, 72 h, read-out: IC50 (mean ± SD) Lung Cancer NCI-H1975
[4] = tested on: Breast Cancer MCF-7; experiment: Tumor cell proliferation inhibition, SRB; details: Homo sapiens, MCF7, 72 h, read-out: IC50 (mean ± SD) Breast Cancer MCF-7
[5] = tested on: Breast Cancer MDA-MB-231; experiment: Tumor cell proliferation inhibition, SRB; details: Homo sapiens, MDA-MB-231, 72 h, read-out: IC50 (mean ± SD) Breast Cancer MDA-MB-231
[6] = tested on: Breast Cancer T47D; experiment: Tumor cell proliferation inhibition, SRB; details: Homo sapiens, 72 h, read-out: IC50 (mean ± SD) Breast Cancer T47D
[7] = tested on: Stomach cancer NCI-N87; experiment: Tumor cell proliferation inhibition, SRB; details: Homo sapiens, NCI-N87, 72 h, read-out: IC50 (mean ± SD) Stomach cancer NCI-N87
[8] = tested on: Liver cancer BEL-7404; experiment: Tumor cell proliferation inhibition, SRB; details: Homo sapiens, 72 h, read-out: IC50 (mean ± SD) Liver cancer BEL-7404
Protocol: (§1) The antitumor activity test of the example compounds was carried out, and the in vitro antitumor activities of the compounds were evaluated by measuring the growth inhibitory activities of the compounds against a plurality of human tumor cell lines.
(§2) Tumor cells (except MDA-MB-231) were routinely cultured under 37° C., 5% CO2.
(§3) According to the cell growth rate, the tumor cells in the logarithmic growth phase were inoculated into 96-well culture plates at 90 μL/well, and adherently grown for 24 h and then added with 10 μL/well, and each concentration was set to three replicate wells, and DMSO vehicle controls and cell-free wells at corresponding concentration were also set. Tumor cells (except MDA-MB-231) were cultured for 72 h under conditions of 37° C. and 5% CO2 (MDA-MB-231 cells were cultured at 37° C. without CO2). […] The OD value at 450 nm was measured by a microplate reader. […] After dried by convert placing in an oven, 150 μL of 10 mM Tris solution was added into each well, and the OD value at 560 nm was measured by a microplate reader.
(§4) The inhibition rate of tumor cell proliferation was calculated according to the following formula. The half-inhibition amount IC50 value was calculated by Log it method. […]

[9] = tested on: stomach cancer MKN-74; experiment: Tumor cell proliferation inhibition, SRB; details: Homo sapiens, 72 h, read-out: IC50 (mean ± SD) stomach cancer MKN-74
Protocol: as §1, §2, §3, §4

[10] = tested on: colon cancer HT-29; experiment: Tumor cell proliferation inhibition, SRB; details: Homo sapiens, HT-29, 72 h, read-out: IC50 (mean ± SD) colon cancer HT-29
[11] = tested on: Embryonic lung cells MRC-5; experiment: Cell proliferation inhibition, SRB; details: Homo sapiens, MRC5, 72 h, read-out: IC50 (mean ± SD) Embryonic lung cells MRC-5
Protocol: as §1, §2, §3, §4

[12] = tested on: lymphoma Ramos; experiment: Tumor cell proliferation inhibition, CCK-8; details: Homo sapiens, 72 h, read-out: IC50 (mean ± SD) lymphoma Ramos
[13] = tested on: Acute lymphoblastic leukemia MOLT-4; experiment: Tumor cell proliferation inhibition, CCK-8; details: Homo sapiens, 72 h, read-out: IC50 (mean ± SD) Acute lymphoblastic leukemia MOLT-4
Protocol: as §1, §2
(§5) According to the cell growth rate, the tumor cells in the logarithmic growth phase were inoculated into 96-well culture plates at 90 μL/well, and adherently grown for 24 h and then added with 10 μL/well, and each concentration was set to three replicate wells, and DMSO vehicle controls and cell-free wells at corresponding concentration were also set. Tumor cells (except MDA-MB-231) were cultured for 72 h under conditions of 37° C. and 5% CO2 (MDA-MB-231 cells were cultured at 37° C. without CO2). After the drug was applied, 10 μL of CCK-8 solution was added to each well in Ramos, HL-60, Molt-4, Raji, CCRF-CEM, and SU-DHL-6 tumor cell line experiments, and incubated at 37° C. for 2 h. The OD value at 450 nm was measured by a microplate reader. In the BEL-7402, BEL-7404, A549, NCI-H1975, EBC-1, MCF-7, MDA-MB-231, T47D, NCI-N87, MKN-74, HT-29 and MRC-5 tumor cell line experiments, the cell culture solution in the culture plate was discarded, and 10% (w/v) trichloroacetic acid (100 pt/well) was added and fixed at 4° C. for 1 h, and then rinsed with distilled water for five times. After dried by convert placing in an oven, the plate was taken out and 100 μL of SRB solution (4 mg/mL SRB powder dissolved in 1% glacial acetic acid) was added into each well. After standed at room temperature for 15 minutes, it was washed five times with 1% glacial acetic acid to completely remove the SRB which has not bounded to the plate protein. After dried by convert placing in an oven, 150 μL of 10 mM Tris solution was added into each well, and the OD value at 560 nm was measured by a microplate reader.
(§6) The inhibition rate of tumor cell proliferation was calculated according to the following formula. The half-inhibition amount IC50 value was calculated by Log it method. Inhibition rate=(control group OD value−administration group OD value)/control group OD value×100%. Each set of experiments was repeated three times independently, while 3 replicate wells per concentration.

[14] = tested on: Acute lymphocytic leukemia T lymphocyte CCRF; experiment: Tumor cell proliferation inhibition, CCK-8; details: Homo sapiens, 72 h, read-out: IC50 (mean ± SD) Acute lymphocytic leukemia T lymphocyte CCRF
Protocol: as §1, §2, §5, §6

[15] = tested on: Human blood lymphoma Raji; experiment: Tumor cell proliferation inhibition, CCK-8; details: 72 h, read-out: IC50 (mean ± SD) Human blood lymphoma Raji
Protocol: as §1, §2, §5, §6

[16] = tested on: promyeloid leukemia HL60; experiment: Tumor cell proliferation inhibition, CCK-8; details: Homo sapiens, HL-60, 72 h, read-out: IC50 (mean ± SD) promyeloid leukemia HL60
Protocol: as §1, §2, §5, §6

[17] = tested on: lymphoma SU-DHL-6; experiment: Tumor cell proliferation inhibition, CCK-8; details: Homo sapiens, SU-DHL-6, 72 h, read-out: IC50 (mean ± SD) lymphoma SU-DHL-6

O=C(CCCCCCC(=O)Nc1ccccc1)NO [SAHA, vorinostat]
IC50 [1]: 1 ± 0.35 µM
IC50 [2]: 2.78 ± 0.0932 µM
IC50 [3]: 1.99 ± 0.302 µM
IC50 [4]: 0.883 ± 0.0699 µM
IC50 [5]: 3.12 ± 0.434 µM
IC50 [6]: 0.962 ± 0.112 µM
IC50 [7]: 1.08 ± 0.0862 µM
IC50 [8]: 2.81 ± 0.187 µM
IC50 [9]: 3.02 ± 0.253 µM
IC50 [10]: 1.33 ± 0.0202 µM
IC50 [11]: 5.1 ± 0.829 µM
IC50 [12]: 1.62 ± 0.0356 µM
IC50 [13]: 1.21 ± 0.0331 µM
IC50 [14]: 1.53 ± 0.171 µM
IC50 [15]: 1.01 ± 0.0379 µM
IC50 [16]: 1.12 ± 0.0709 µM
IC50 [17]: 0.787 ± 0.0237 µM
